Source: paper PMC3093395
These are yes or no findings as the source states them, for the method shown. Binding seen in cells or lysates may run through a third protein. Some results given as binding are weak or reduced against the parent protein; the word gives no strength.

The chains behind the UniProt entries cited, without tags or fusion partners.
UniProt Q9CW03: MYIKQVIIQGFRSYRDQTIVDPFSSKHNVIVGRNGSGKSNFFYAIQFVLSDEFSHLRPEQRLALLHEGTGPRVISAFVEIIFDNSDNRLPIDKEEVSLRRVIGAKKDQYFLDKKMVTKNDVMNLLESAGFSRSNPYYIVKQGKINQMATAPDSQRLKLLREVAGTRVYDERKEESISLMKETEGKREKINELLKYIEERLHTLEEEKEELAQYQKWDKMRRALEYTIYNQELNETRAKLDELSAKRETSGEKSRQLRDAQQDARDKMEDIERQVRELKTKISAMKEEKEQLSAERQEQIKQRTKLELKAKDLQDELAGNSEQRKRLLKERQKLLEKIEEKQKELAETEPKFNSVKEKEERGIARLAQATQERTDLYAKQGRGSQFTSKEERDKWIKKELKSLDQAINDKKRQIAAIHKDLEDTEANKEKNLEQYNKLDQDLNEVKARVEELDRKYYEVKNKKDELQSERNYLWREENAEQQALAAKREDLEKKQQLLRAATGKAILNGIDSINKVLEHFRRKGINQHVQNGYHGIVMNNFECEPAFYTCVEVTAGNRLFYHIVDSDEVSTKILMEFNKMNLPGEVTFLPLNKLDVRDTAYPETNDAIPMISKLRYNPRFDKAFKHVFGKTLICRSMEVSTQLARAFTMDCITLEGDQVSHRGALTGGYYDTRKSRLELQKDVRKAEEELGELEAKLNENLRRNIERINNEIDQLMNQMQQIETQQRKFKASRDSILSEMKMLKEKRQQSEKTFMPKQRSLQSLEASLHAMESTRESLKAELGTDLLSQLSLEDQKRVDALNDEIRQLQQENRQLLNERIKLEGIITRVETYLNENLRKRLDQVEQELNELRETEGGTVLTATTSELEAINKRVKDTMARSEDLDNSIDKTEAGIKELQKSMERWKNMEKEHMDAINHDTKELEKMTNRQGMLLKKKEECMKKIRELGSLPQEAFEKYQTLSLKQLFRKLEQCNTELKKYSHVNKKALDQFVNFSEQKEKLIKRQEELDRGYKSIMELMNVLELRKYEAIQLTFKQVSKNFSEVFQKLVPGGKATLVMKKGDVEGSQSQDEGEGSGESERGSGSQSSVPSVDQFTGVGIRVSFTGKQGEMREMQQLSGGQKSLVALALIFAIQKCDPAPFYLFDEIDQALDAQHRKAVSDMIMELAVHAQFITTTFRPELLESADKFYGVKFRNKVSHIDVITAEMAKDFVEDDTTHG

Target: T1, RAD21-LAP (mouse (BAC transgene in mouse R1/E ESC)) (UniProt Q61550)
T1 sequence: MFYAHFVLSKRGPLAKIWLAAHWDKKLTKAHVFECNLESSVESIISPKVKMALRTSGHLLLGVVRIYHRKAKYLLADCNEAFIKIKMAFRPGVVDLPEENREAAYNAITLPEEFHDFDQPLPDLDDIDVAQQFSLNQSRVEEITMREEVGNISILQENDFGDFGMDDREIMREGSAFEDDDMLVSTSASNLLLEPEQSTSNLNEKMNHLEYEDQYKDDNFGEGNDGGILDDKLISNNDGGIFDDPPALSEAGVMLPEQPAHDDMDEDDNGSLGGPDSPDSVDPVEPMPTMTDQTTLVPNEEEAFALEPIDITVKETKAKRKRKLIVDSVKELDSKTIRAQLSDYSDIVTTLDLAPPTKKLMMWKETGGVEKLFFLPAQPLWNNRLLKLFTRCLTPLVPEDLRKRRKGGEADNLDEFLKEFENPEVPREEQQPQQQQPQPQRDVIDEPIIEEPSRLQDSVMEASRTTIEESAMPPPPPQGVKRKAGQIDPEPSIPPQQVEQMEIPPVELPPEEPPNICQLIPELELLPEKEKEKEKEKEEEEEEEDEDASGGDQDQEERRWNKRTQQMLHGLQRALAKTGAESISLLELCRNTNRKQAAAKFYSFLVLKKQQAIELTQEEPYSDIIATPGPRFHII
Assay: co-IP; RAD21-LAP immunoprecipitation from RAD21 BAC-GFP ESC with a GFP antibody; Western blot

SMC3 (from UniProt Q9CW03 1-1217) was tested, and the binding was “binds”.
